{"source": "paper PMC12040169", "about": "(PLOS Biology, 2025)", "note": "The other results are listed elsewhere or left out.", "data": [{"system": "T1, CTL2-GFP (C. trachomatis L2/434/Bu, GFP-expressing)", "T1 construct": "L2/434/Bu, GFP-expressing", "set-up": "species or system HeLa; Intracellular C. trachomatis growth in HeLa cells, bulk GFP fluorescence relative to DMSO", "settings": "bulk GFP, single well; 28.5 h, 10 µM; inhibitor", "units": {"% of control remaining": "%"}, "values": [{"smiles": "CCc1nc2ccc(C(=O)N3CCN(C(=O)c4ccco4)CC3)cn2c1N(C)Cc1ccncc1", "note": "[CBK145635]", "% of control remaining": 112.887}, {"smiles": "Oc1ccc2nc(N[C@H]3CC4CCC3C4)sc2c1Cl", "note": "(stereo partly drawn) [CBK024348G]", "% of control remaining": 112.654}, {"smiles": "Nc1nc(-c2ccc3c(c2)CCC(=O)N3)cs1", "note": "[CBK086133]", "% of control remaining": 167.141}, {"smiles": "Cc1nn(C)c(C(=O)Nc2sc3c(c2C#N)CCC(C)C3)c1Br", "note": "(stereo not drawn) [CBK304212]", "% of control remaining": 136.976}, {"smiles": "Cc1cc(OC(C)C(=O)Nc2ccccc2C(=O)N2CCCCC2)ccc1Cl", "note": "(stereo not drawn) [CBK269696]", "% of control remaining": 92.3088}, {"smiles": "COc1cc([C@@]23CC[C@@H](NC(=O)Nc4cccc(Cl)c4)C[C@@H]2N(C)CC3)cc(OC)c1OC", "note": "[CBK039212]", "% of control remaining": 107.282}, {"smiles": "CC(NCCCN(C)C)=C1C(=O)c2ccccc2C1=O", "note": "[CBK262674]", "% of control remaining": 122.954}, {"smiles": "N#CCCN(C(=O)NCc1cccnc1)C1CCCCC1", "note": "[CBK156355]", "% of control remaining": 205.283}, {"smiles": "CCOC(=O)c1[nH]c2ccccc2c1NS(=O)(=O)c1ccc(Br)cc1", "note": "[CBK047409]", "% of control remaining": 55.9226}, {"smiles": "CCOc1cccc(/C=N\\NC(=O)C2COc3cc4ccccc4cc3O2)c1O", "note": "(stereo not drawn) [CBK262846]", "% of control remaining": 66.7273}, {"smiles": "Cc1nn(C)c(Sc2ccccc2)c1[N+](=O)[O-]", "note": "[CBK002937]", "% of control remaining": 106.124}, {"smiles": "O=C(NCC(CO)Cc1ccsc1)N1CCN(c2ccncc2)CC1", "note": "(stereo not drawn) [CBK306929]", "% of control remaining": 94.4195}, {"smiles": "CCN(CC)C(=O)CNS(=O)(=O)Cc1ccccc1[N+](=O)[O-]", "note": "[CBK034504]", "% of control remaining": 95.4422}, {"smiles": "Cc1nn(Cc2ccccn2)c(=O)n2cccc12", "note": "[CBK283849]", "% of control remaining": 119.904}, {"smiles": "CC(=O)Nc1nc(OCC(F)(F)F)cnc1-c1ccc2c(c1)OCO2", "note": "[CBK145427]", "% of control remaining": 102.966}, {"smiles": "COc1ccc(S(=O)(=O)NCCN2CCOCC2)cc1Br", "note": "[CBK269838]", "% of control remaining": 109.567}, {"smiles": "CC(C)CC(NC(=O)c1cccnc1)c1nnc2n1CCNCC2", "note": "(stereo not drawn) [CBK307149]", "% of control remaining": 127.225}, {"smiles": "O=C1NN=C(CSCCO)Oc2ccccc21", "note": "[CBK006771]", "% of control remaining": 110.75}, {"smiles": "COCc1cccc(Nc2ncnc3c2cnn3CCO)c1", "note": "[CBK306214]", "% of control remaining": 128.927}, {"smiles": "C(=C\\c1nccnc1OCc1cccs1)/c1ccccc1", "note": "[CBK106883]", "% of control remaining": 109.281}, {"smiles": "CC(=O)c1ccc(S(=O)(=O)N2CCCCC2C)cc1", "note": "(stereo not drawn) [CBK069211]", "% of control remaining": 127.586}, {"smiles": "CC1CCc2c(sc3ncnc(SC(C)C(=O)OC4CCCCC4)c23)C1", "note": "(stereo not drawn) [CBK265050]", "% of control remaining": 100}, {"smiles": "CCOc1ccc(CN(C)C(=O)Cn2nc(C(=O)O)c3ccccc3c2=O)cc1", "note": "[CBK297492]", "% of control remaining": 130.28}, {"smiles": "COC(=O)c1ccc2c(c1)[n+](CCO)c(C)n2CCO", "note": "[CBK262443C]", "% of control remaining": 120.727}, {"smiles": "CC1CCc2nc3ccccc3c(C(=O)N(C)Cc3cnn(C)c3)c2C1", "note": "(stereo not drawn) [CBK305749]", "% of control remaining": 138.298}, {"smiles": "CC(C)NC(=O)Cn1cnc2c1c(=O)n(C)c(=O)n2C", "note": "[CBK133257]", "% of control remaining": 110.377}, {"smiles": "COc1ccc(Oc2nccnc2N2CCN(Cc3ccc([N+](=O)[O-])cc3)CC2)cc1OC", "note": "[CBK083046T]", "% of control remaining": 75.4216}, {"smiles": "CCN(CC)S(=O)(=O)c1ccc(C)c(NS(=O)(=O)c2cc(C(=O)O)n(C)c2)c1", "note": "[CBK297782]", "% of control remaining": 149.283}, {"smiles": "Clc1cc2nc(OCCCc3ccncc3)c(N3CCCC3)nc2cc1Cl", "note": "[CBK115774]", "% of control remaining": 104.345}, {"smiles": "COc1ccc(C(=O)N2CCC3(CCCN(C(=O)c4cccnc4)C3)C2)cc1OC", "note": "(stereo not drawn) [CBK131668]", "% of control remaining": 116.762}, {"smiles": "CCN(CC)CCCNC(=O)N1CCCC(C(=O)N(CC)CC)C1", "note": "(stereo not drawn) [CBK156149]", "% of control remaining": 101.758}, {"smiles": "Cc1cc(OCC(=O)N2CCNC(=O)C2)c2c(C)c(C)c(=O)oc2c1", "note": "[CBK307624]", "% of control remaining": 111.335}, {"smiles": "Cc1csc(C(Cc2ccsc2)NC(=O)C2CCOC2)n1", "note": "(stereo not drawn) [CBK285150]", "% of control remaining": 117.836}, {"smiles": "COc1cccc2sc(NC(=O)CN3CCOCC3)nc12", "note": "[CBK149281]", "% of control remaining": 112.905}, {"smiles": "O=C(C1C2CCCCC21)N1CCC(c2nnc3n2CCCCC3)CC1", "note": "(stereo not drawn) [CBK283351]", "% of control remaining": 133.686}, {"smiles": "O=C(CN1CCN(Cc2ccccc2)CC1)Nc1cccc(Cl)c1", "note": "[CBK267850]", "% of control remaining": 102.919}, {"smiles": "Cc1nn(CC(=O)N2CCCCCC2)c(=O)c2cc3sccc3n12", "note": "[CBK284084]", "% of control remaining": 124.448}, {"smiles": "CN(CCCC(=O)Nc1nnc[nH]1)S(=O)(=O)c1ccccc1", "note": "[CBK267380]", "% of control remaining": 135.4}, {"smiles": "COc1ccc([C@@]23CC[C@@H](NC(=O)Nc4cccc(C#N)c4)C[C@@H]2N(C)CC3)cc1OC", "note": "[CBK036448T]", "% of control remaining": 111.437}, {"smiles": "Cc1noc2c1[C@H]1[C@H](O)[C@H](O)C[C@H]1C1(CCC1)N2", "note": "[CBK303266]", "% of control remaining": 98.2656}, {"smiles": "NCc1ccc(CN(Cc2cnc(-c3ccccc3)[nH]2)C(=O)Nc2ccc3c(c2)OCO3)cc1", "note": "[CBK046158C]", "% of control remaining": 122.959}, {"smiles": "O=C(NCc1cccc(C(F)(F)F)c1)N1CCN(CCN2CCOCC2)CC1", "note": "[CBK155671]", "% of control remaining": 112.41}, {"smiles": "Cc1cccc(C(=O)NNC(=O)COc2cccc3ccccc23)c1O", "note": "[CBK262993]", "% of control remaining": 122.09}, {"smiles": "c1ccc(C(NCc2cnc(-c3ncccn3)s2)C2CCC2)cc1", "note": "(stereo not drawn) [CBK304013]", "% of control remaining": 135.202}, {"smiles": "COc1ccc(OC(C)(C)C(=O)N2CCCC(c3ccc(Nc4ncccn4)cn3)C2)cc1", "note": "(stereo not drawn) [CBK285970]", "% of control remaining": 94.6479}, {"smiles": "CCN1CCN(c2cc3c(cc2F)c(=O)c(C(=O)NCCOC)cn3C2CC2)CC1", "note": "[CBK300529]", "% of control remaining": 3.302}, {"smiles": "CCc1ccc(OC(C)c2nnc(SCC(=O)N3c4ccccc4Sc4ccccc43)n2C)cc1", "note": "(stereo not drawn) [CBK268058]", "% of control remaining": 126.606}, {"smiles": "Fc1ccccc1Oc1nnnn1-c1ccccc1", "note": "[CBK002526]", "% of control remaining": 96.2539}, {"smiles": "COc1ccccc1OC(=O)c1ccccc1Cl", "note": "[CBK090164]", "% of control remaining": 160.413}, {"smiles": "CCCOc1ccc(-c2nnn(CC(=O)OCC)n2)cc1", "note": "[CBK068817]", "% of control remaining": 100}, {"smiles": "O=C(NCc1ccccc1)c1ccco1", "note": "[CBK086713]", "% of control remaining": 116.163}]}]}
